Where no end group is shown, it is not given here.
Key:
M2 receptor = assay: Immunoblotting of muscarinic ACh receptor expression in middle jejunum; type: in vivo, piglets (Polish Landrace x Pietrain); details: 6 days, Western blot (Fig 4)
M1 receptor = assay: as above; type: in vivo, piglets (Polish Landrace x Pietrain); details: 6 days, Western blot (Fig 4)
[1] = O2: obestatin 2 μg/kg BW intra-stomach every 8 h
[2] = O10: obestatin 10 μg/kg BW intra-stomach every 8 h
[3] = O15: obestatin 15 μg/kg BW intra-stomach every 8 h

FNAPFDVGIKLSGAQYQQHGRAL-NH2 [obestatin]
no significant effect: cytoplasmic expression of M2 receptor (IOD, b-actin ratio) (M2 receptor; [3]) | cytoplasmic expression of M1 receptor (IOD, b-actin ratio) (M1 receptor; [3])
significantly increased: cytoplasmic expression of M2 receptor (IOD, b-actin ratio) (M2 receptor; [1]) | cytoplasmic expression of M2 receptor (IOD, b-actin ratio) (M2 receptor; [2]) | cytoplasmic expression of M1 receptor (IOD, b-actin ratio) (M1 receptor; [1]) | cytoplasmic expression of M1 receptor (IOD, b-actin ratio) (M1 receptor; [2])

— publication PMC7089538, “The effects of intra-stomach obestatin administration on intestinal contractility in neonatal piglets fed milk formula” (PLoS ONE, 2020)
